This is an account of results in ChEMBL document CHEMBL2311325, “New structure-activity relationship studies in a series of N,N-bis(cyclohexanol)amine aryl esters as potent reversers of P-glycoprotein-mediated multidrug resistance (MDR)” (Bioorg Med Chem, 2013).

The subject of the assay is K562. In words: Cytotoxicity against human K562 cells after 72 hrs by MTT assay. The settings on record: K562, 72 h. In kind it is functional, cell-based. In short, it runs like this: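 Parental human K562 leukaemia cells in exponential growth (3-5 × 10^5 cells/mL) seeded at 3000 cells/well. Compound alone, doxorubicin, or both added from 10^-2 M DMSO stocks diluted in complete medium. Incubated 72 h at 37 °C in 5% CO2, then MTT for 3 h. Formazan dissolved in DMSO, A540 read, IC50 versus untreated control taken from plots; quadruplicate cultures.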
A general note: Tetrazolium dyes change colour on reduction, which living cells bring about.

For the compound `COc1cccc2c1C(=O)c1c(O)c3c(c(O)c1C2=O)C[C@@](O)(C(=O)CO)C[C@@H]3O[C@H]1C[C@H](N)[C@H](O)[C@H](C)O1` [DOXORUBICIN], the midpoint of inhibition, the IC50, lay at 30 nM.

As usually defined, the IC50 is the concentration that gives 50% inhibition. Read a low IC50 as inhibition by little substance.
